# PubChem BioAssay AID686937, Drosophila RNAi Screening Center | 2013
# Screen: 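Genes in the fly needed for secretion of protein constitutively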 (primary screen)
# Cell system: Drosophila S2 cells expressing secreted horseradish peroxidase
# Knock-down reagent: long dsRNA against Drosophila genes
# Time to read-out: about 5.5 days (5 days dsRNA, then 12 h reporter induction)
# Conditions: reporter expression induced after 5 days of dsRNA, read 12 h later; inducer not stated
# Measurement: 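Chemiluminescent measurement of peroxidase in the medium 12 h after reporter induction, following 5 days of dsRNA, given as a z-score per plate; higher means more secretion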
# Reading the numbers: z-score: higher = more reporter secreted into medium
# The deposit covers about 23,000 reagents; below is a random part of those that have a named target and a result. 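Reduced-secretion tags in replicate 1 do not always agree with the z-scores; no criterion for assigning the tags was given.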 The numbers tell different reagents against one gene apart. A plus sign joins genes that one reagent is predicted to hit. Further read-outs or replicates are left out here. Reagent sequences are not shown. Not stated in the record: the amount of reagent.
gene,dsRNA no.,"z-score, replicate 1"
hid,1,0.15
Rpn13R,1,0.37
TBC1D23,1,0.16
Hibch,1,0.1
CG14856,1,0.35
Bap55,1,0.42
CG6763,1,0.25
Eig71Ei,1,0.31
CG18585,1,0.31
CG12104,1,0.22
Osi6,1,0.03
CG14380,1,0.22
CG17919,1,0.21
Dnaaf3,1,0.24
sigmar,1,0.02
HP1D3csd,1,0.24
side-V,1,0.57
side-V,2,0.81
side-V,3,-1.07
CG13126,1,0.55
CG9689,1,0.16
ND-B8,1,0.24
Rab27,1,0.25
Rbf2,1,0.21
Pka-R1,1,0.17
Pka-R1,2,0.17
CG31248,1,0.17
Pomp,1,-6.09
mei-41,1,0.15
CG14636,1,0.27
CG34299,1,0.11
Gmppb,1,0.19
CG10527,1,0.04
Ras64B,1,0
CG5877,1,0.4
mRpL20,1,-0.07
Ptpmeg,1,0.1
CG14537,1,0.26
Acp53C14c,1,-0.01
CG7668,1,0.23
roh,1,-1.01
bab1,1,0.51
bab1,2,0.65
bab1,3,-0.52
CG14282,1,0.28
CG15865,1,0.14
CG3558,1,0.31
CG8191 + CG12379,1,0.33
CG14246,1,0.42
NKCC,1,0.54
NKCC,2,0.1
CG10911,1,0.08
Lapsyn,1,0
Sod1,1,0.46
CG13154,1,-2.57
CG15535,1,0.4
SAK,1,0.19
Ir52b,1,0.55
CG14573,1,0.25
CG12784,1,0.43
CG6621,1,0.15
CG12773,1,0.08
CG14104,1,0.1
Grl62a,1,0.29
Cen,1,0.5
Cyp18a1,1,0.3
dila,1,0.1
SdhBL,1,0.35
CG13575,1,0.07
CG13575,2,-0.58
CG8888,1,0.46
CG8888,2,0.63
Bug22,1,-0.04
CG32473,1,0.37
CG32473,2,0.37
lncRNA:CR32658,1,0.28
yellow-d2,1,0.27
Amun,1,-1.63
CG13305,1,-0.71
Arc1,1,-0.71
sens,1,-4.01
Kif3C,1,0.22
Kif3C,2,0.52

7 entries from above, ordered by “z-score, replicate 1”, low to high:
gene,dsRNA no.,"z-score, replicate 1"
sigmar,1,0.02
Osi6,1,0.03
CG17919,1,0.21
CG12104,1,0.22
CG14380,1,0.22
Dnaaf3,1,0.24
CG18585,1,0.31
